Assay results taken from PubChem BioAssay AID2685 (National Center for Advancing Translational Sciences (NCATS), 2010).
Some of the results follow. Shown are side measurements of this screen, not its main read-out; they come without a call. Most of these compounds were active or inconclusive in the main read-out, so they are no random draw. Potencies come from curve fits of mixed quality, noted in brackets.

Assay: qHTS Assay for Lipid Storage Modulators in Drosophila S3 Cells;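 as to cell number change: cells counted by Cell Tracker Red CMTPX staining in the red channel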
Settings: BODIPY lipid droplet fluorescence, 18-24 h; for cell number change: measured here: cell count max response, cells fed with added oleic acid
How it was run: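 Drosophila S3 cells got compounds at several concentrations plus oleic acid (400 uM solution). Laser-scanning cytometry with 488 nm excitation read lipid droplets at 500-530 nm and cells at 575-640 nm. Percent activity was relative to 20 uM Triacsin C.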

[1] = measured here: lipid fluorescence (Fed channel) AC50, cells fed with added oleic acid
[2] = measured here: cell number channel AC50, cells fed with added oleic acid

| SMILES | cell number change [%] | AC50 [1] | AC50 [2] |
| --- | --- | --- | --- |
| Cc1ccc(/C=N/NC(=O)c2ccncc2)s1 | 33 | – | – |
| COc1cccc(-c2noc(CCCC(=O)NC3CCCC3)n2)c1 | -5.37 | 0.731 µM [falling, single point] | – |
| O=C(NCCO)c1ccc2nc(-c3ccco3)c(-c3ccco3)nc2c1 | 25.7 | – | – |
| Cc1sc2ncnc(NCC(c3ccco3)N3CCCC3)c2c1C (stereo not drawn) | -4.9 | 2.06 µM [falling, partial curve] | – |
| O=C(COC(=O)C(O)c1ccccc1)NC12CC3CC(CC(C3)C1)C2 (stereo not drawn) | -6.8 | 5.8 µM [falling, full curve, poor fit] | – |
| Cc1c(C(=O)N2CCC(n3nccc3NC(=O)C3CC3)CC2)[nH]c2ccc(Cl)cc12 | 5.38 | 29.1 µM [falling, single point] | 4.61 µM [rising, single point] |
| CN1C(=O)C(C)(C)c2cc(S(=O)(=O)N3CCC(C(=O)Nc4ccc(Cl)cc4)CC3)ccc21 | -1.8 | – | – |
| CCc1cc2c(SCC(=O)C(C#N)=C3N(C)c4ccccc4N3C)ncnc2s1 | 56.3 | 20.6 µM [rising, partial curve] | 20.6 µM [rising, partial curve, poor fit] |
| COc1ccc(C2=NN(C(=O)c3ccncc3)C(c3ccccc3O)C2)cc1 (stereo not drawn) | 6.67 | 4.61 µM [rising, partial curve] | – |
| O=C(Oc1cccc2cccnc12)c1ccc(Br)o1 | -4.56 | – | – |
| Cn1c(CCNC(=O)c2cc(COc3ccc(F)c(F)c3)on2)nc2ccccc21 | -7.31 | 0.651 µM [falling, single point] | – |
| CCOC(=O)N1CCC(NC(=O)c2ccc3c(c2)sc2nc(-c4cccc(OC)c4)cn23)CC1 | -34.5 | 20.6 µM [falling, single point] | 18.4 µM [falling, single point] |
| Cc1cccnc1NC(=O)Nc1cccc2ccccc12 | 94.7 | 7.31 µM [rising, partial curve] | 2.31 µM [rising, full curve] |
| Cc1ccc(-c2csc(NC(=O)c3ccc(S(=O)(=O)N4CCc5ccccc54)cc3)n2)cc1 | 16.4 | 1.16 µM [rising, full curve, poor fit] | – |
| CCc1ccc(-n2nnnc2SCC(=O)Nc2ccc(NC(C)=O)cc2)cc1 | 16.1 | 16.4 µM [falling, single point] | – |
| COc1ccccc1CC(=O)Nc1ccc(-c2noc(COc3ccc(Br)cc3)n2)cc1 | – | – | 0.651 µM [rising, single point] |
| CN(C)C=Nc1ncc2c3ccccc3n(CCN(C)C)c2c1C#N | 1.55 | 1.64 µM [rising, full curve, poor fit] | – |

Five of the compounds above, in CSV form.
SMILES,cell number change [%],AC50 [1],AC50 [2]
O=C(NCCO)c1ccc2nc(-c3ccco3)c(-c3ccco3)nc2c1,25.7,–,–
Cc1sc2ncnc(NCC(c3ccco3)N3CCCC3)c2c1C (stereo not drawn),-4.9,"2.06 µM [falling, partial curve]",–
COc1ccc(C2=NN(C(=O)c3ccncc3)C(c3ccccc3O)C2)cc1 (stereo not drawn),6.67,"4.61 µM [rising, partial curve]",–
COc1ccccc1CC(=O)Nc1ccc(-c2noc(COc3ccc(Br)cc3)n2)cc1,–,–,"0.651 µM [rising, single point]"
CN(C)C=Nc1ncc2c3ccccc3n(CCN(C)C)c2c1C#N,1.55,"1.64 µM [rising, full curve, poor fit]",–
